Measurements from “University of Dundee, Small-Polar-MMV Screening Library” (2021), ChEMBL document CHEMBL3988442.

Chains of the proteins cited; added tags and fusions are not shown.
UniProt E9BF75, entry or part of it: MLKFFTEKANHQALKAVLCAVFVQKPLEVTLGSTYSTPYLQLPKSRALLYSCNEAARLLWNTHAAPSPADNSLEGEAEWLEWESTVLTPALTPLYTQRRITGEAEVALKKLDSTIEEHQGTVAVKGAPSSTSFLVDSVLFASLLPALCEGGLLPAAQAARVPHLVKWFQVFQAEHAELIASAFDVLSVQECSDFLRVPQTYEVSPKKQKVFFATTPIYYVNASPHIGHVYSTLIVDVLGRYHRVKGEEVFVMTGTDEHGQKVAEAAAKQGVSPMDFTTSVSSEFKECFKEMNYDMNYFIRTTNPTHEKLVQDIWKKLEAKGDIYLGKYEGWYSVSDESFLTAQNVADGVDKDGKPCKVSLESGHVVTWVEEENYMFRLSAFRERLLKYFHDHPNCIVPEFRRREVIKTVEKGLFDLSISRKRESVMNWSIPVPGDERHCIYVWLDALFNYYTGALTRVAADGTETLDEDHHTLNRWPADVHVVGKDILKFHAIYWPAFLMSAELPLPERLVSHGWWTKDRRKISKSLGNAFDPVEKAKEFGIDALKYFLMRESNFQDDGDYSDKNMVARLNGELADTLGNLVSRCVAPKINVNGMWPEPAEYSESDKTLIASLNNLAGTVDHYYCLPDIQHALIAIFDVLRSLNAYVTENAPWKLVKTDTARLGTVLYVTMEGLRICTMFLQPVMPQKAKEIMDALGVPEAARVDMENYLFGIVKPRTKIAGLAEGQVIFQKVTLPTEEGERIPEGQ

Results are percentages, as filed.
The record does not define 0% and 100%; most values in the screen are far below 50% and negative numbers occur (in some assays of this library far below -100).
The compounds are a random part of those screened.

A: 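Primary screen of methionyl-tRNA synthetase; the read-out is not stated. Target: Methionyl-tRNA synthetase (putative), Leishmania donovani (UniProt E9BF75). The test concentration is not given. Values are per cent inhibition. Of about 68,000 compounds tested this way, about 24 (0.035%) reached 50% or more in at least one test.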
B: 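Assay on Mycobacterium tuberculosis, filed only as a heat shock assay from Cornell; the read-out is not stated. The concentration is filed as 10 mM, unlikely as a test dose, so the dose is not known. Higher reads as stronger inhibition (inferred: compounds with an IC50 in retests scored well above the rest). Of about 69,000 compounds tested this way, about 930 (1.4%) reached 50% or more in at least one test.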

CC(=O)NC1CCN(c2cnc(C3CCNCC3)cn2)CC1 gave A: 10.11%.
O=C(C1CCOC1)N1CCC2(CCN(Cc3nccs3)CC2)CC1 (centres undefined) gave A: 10%; B: -11.54%.
Cn1nc(C2CC2)c2c1NC(=O)CC2c1ccc(CN2CCCCC2)s1 (centres undefined) gave A: 3.733%; B: -0.9929%.
Cc1ccc(N2CCCN(C(=O)CCc3nccs3)CC2)nn1 gave A: 13.26%; B: -11.13%.
Cc1cncc(C(=O)N2CCC3(CC2)C(=O)Nc2ccccc23)c1 gave A: 13.4%; B: 6.247%.
CC(C)(C)c1ncc(C(=O)NCCNS(C)(=O)=O)s1 gave A: 13.13%; B: 4.296%.
N#Cc1c[nH]nc1NCc1ccc2c(c1)OCO2 gave A: -12.13%; B: 11.1%.
CC(=O)NC1(C(=O)N(C)Cc2c(C)noc2C)CCCCC1 gave A: 6.587%; B: -15.14%.
COc1cccc(N2CC3(CCN(c4ccncn4)C3)CC2=O)c1 (centres undefined) gave A: 0%; B: -17.79%.
CN(C)CC1(O)CCCN(C(=O)c2ccccc2-n2cccn2)C1 (centres undefined) gave A: 8.075%; B: -15.41%.
CNc1nc2c(s1)C(c1cccc(F)c1F)CC(=O)N2 (centres undefined) gave A: 14.08%; B: 2.392%.
CC(C)C(=O)Nc1cccc(C(=O)Nc2ccccn2)c1 gave A: 6.636%; B: -14.14%.
Cc1cc(=O)n(CC(=O)Nc2ccc(Cl)cc2)nc1C gave A: 16.72%; B: -4.62%.
Cc1nc2n(n1)CC(NCc1ccccc1OCC(=O)N(C)C)CC2 (centres undefined) gave A: 15.57%; B: -1.116%.
CC(c1nc(C2CC2)no1)N1CCN(Cc2ccccc2F)CC1 (centres undefined) gave A: 9.028%; B: -0.2159%.
CCOCC1CN(Cc2ccco2)Cc2nccn2C1.O=C(O)C(F)(F)F (centres undefined) gave B: -9.1%.
N#Cc1cc(S(N)(=O)=O)ccc1NC1CCc2c(F)cccc21 (centres undefined) gave A: 18.72%; B: 2.163%.
[H][C@@]12CN(c3ncc(C)cn3)C[C@]1(C(=O)NC)CCCN2c1ncccn1 gave B: 12.42%.
CSCCc1c(-c2ccccc2)ncn1CCNc1cccnc1 gave A: 7.519%; B: -1.442%.
O=C([C@H]1CC[C@@H]2[C@@H](CCN2Cc2nccs2)O1)N1CCCCO1 gave A: 11.11%.
[H][C@]12CNC[C@@]1(C(=O)N(C)Cc1nc(C)c[nH]1)CNC2 gave B: -13.06%.
CC(NC(=O)NCCCN(C)S(C)(=O)=O)c1ccc(Cl)cc1 (centres undefined) gave A: 10.6%; B: -7.537%.
CC(C)C(=O)N1CCN(C(=O)c2cc(C(C)C)on2)[C@H]2CS(=O)(=O)C[C@H]21 gave A: 3.54%.
Cn1cnc2cc(C(=O)N3CCN(CCO)[C@@H]4CS(=O)(=O)C[C@@H]43)ccc21 gave A: 11.98%.
N#Cc1ccccc1C(=O)Nc1cccc(CN2CCC(CO)CC2)c1 gave A: 11.66%; B: -6.346%.
Cc1ccc(N2CCC3(CC2)CCN(C2CCOC2)CC3)nn1.O=C(O)C(F)(F)F (centres undefined) gave B: -13.26%.
O=C(O)C(F)(F)F.O=C(O)C(F)(F)F.O=C(O)C(F)(F)F.[H][C@]12C[C@@H](CN(C)C)N(C(C)C)[C@@]1([H])CCN(c1ncc(F)cn1)C2 gave B: -34.53%.
Cc1nc(CNC(=O)Nc2ccc(N(C)C)nc2)sc1C gave A: 13.09%; B: -21.75%.
Cc1nc(C)c(C(=O)N2CCc3c(C)cccc32)o1 gave A: 20.91%; B: 4.004%.
CCOCC(O)CN1CCN(C(=O)Cc2ccc(C)nc2)CC1 (centres undefined) gave A: 18.37%; B: -2.714%.
CC1=CCN(C(=O)Nc2ccccc2N2CCOC2=O)CC1 gave A: 12.27%; B: 3.123%.
O=S1(=O)N(c2ccccc2)C[C@@H](O)[C@]12CCNC2 gave A: 9.459%; B: -4.24%.
Cc1ncsc1C(=O)NCc1ccnc(N2CCN(C)CC2)c1 gave A: 16.84%; B: 0.2133%.
CC1(C(=O)N2CCOCC2)CN(Cc2ccccn2)CCO1 (centres undefined) gave A: 5.137%; B: -23.92%.
CCNC(=O)[C@@H]1CCCN1[C@@H](C(=O)NC)c1ccccc1OC.Cl gave B: 0.7254%.
O=C(CCN1CCOCC1)Nc1cccc(CNCc2ccsc2)c1 gave A: 1.397%; B: -28.5%.
O=S(=O)(Nc1ccc(N2CCOCC2)cn1)c1ccc(F)cc1 gave A: 14.76%; B: 12.74%.

For reference, 5 entries once more:

- Cc1cncc(C(=O)N2CCC3(CC2)C(=O)Nc2ccccc23)c1 | A: 13.4%; B: 6.247%
- CNc1nc2c(s1)C(c1cccc(F)c1F)CC(=O)N2 (centres undefined) | A: 14.08%; B: 2.392%
- Cn1cnc2cc(C(=O)N3CCN(CCO)[C@@H]4CS(=O)(=O)C[C@@H]43)ccc21 | A: 11.98%
- CSCCc1c(-c2ccccc2)ncn1CCNc1cccnc1 | A: 7.519%; B: -1.442%
- O=S1(=O)N(c2ccccc2)C[C@@H](O)[C@]12CCNC2 | A: 9.459%; B: -4.24%